Measurements taken from article doi:10.1101/2023.12.01.569363.
These are yes or no findings as the source states them, for the method shown. For some assays here: Binding seen in cells or lysates may run through a third protein. Some entries that bind do so weakly or less than the wild type.

Chains of the proteins cited; added tags and fusions are not shown.
UniProt P11166: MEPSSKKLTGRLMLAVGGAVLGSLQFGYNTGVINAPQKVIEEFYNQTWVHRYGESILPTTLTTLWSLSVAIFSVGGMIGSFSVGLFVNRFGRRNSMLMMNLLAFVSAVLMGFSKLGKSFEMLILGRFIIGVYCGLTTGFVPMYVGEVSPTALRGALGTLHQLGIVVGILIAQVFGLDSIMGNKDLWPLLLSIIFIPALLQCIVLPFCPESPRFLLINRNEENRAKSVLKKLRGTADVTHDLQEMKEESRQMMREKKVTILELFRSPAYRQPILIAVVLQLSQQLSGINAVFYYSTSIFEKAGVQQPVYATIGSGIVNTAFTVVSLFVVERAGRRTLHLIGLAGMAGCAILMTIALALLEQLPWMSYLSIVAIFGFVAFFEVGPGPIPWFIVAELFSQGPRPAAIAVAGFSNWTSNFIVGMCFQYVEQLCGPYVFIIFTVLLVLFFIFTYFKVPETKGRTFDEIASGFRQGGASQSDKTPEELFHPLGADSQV

Columns and labels:
PURA (human) [1] = biological target: T1, PURA (human) (UniProt Q00577); experiment: co-IP
T1 sequence: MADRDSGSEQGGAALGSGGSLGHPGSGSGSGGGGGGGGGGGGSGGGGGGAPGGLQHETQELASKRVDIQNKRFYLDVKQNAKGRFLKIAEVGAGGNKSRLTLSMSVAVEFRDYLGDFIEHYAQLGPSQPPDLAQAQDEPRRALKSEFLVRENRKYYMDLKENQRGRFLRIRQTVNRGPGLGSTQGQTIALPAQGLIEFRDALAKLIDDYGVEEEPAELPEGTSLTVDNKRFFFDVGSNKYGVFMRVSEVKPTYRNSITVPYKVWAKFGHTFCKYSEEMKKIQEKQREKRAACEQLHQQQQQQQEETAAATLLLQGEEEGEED

PURA (human) [2] = biological target: T1, PURA (human); experiment: far-Western, overlay or dot blot

How did the binding (PURA (human) [1]) turn out when “glucose transporter 1 (from UniProt P11166 1-492)” was run?
The binding was “binds”.

What about the binding (PURA (human) [2]) of the same substance?
The binding was “binds”.
